The exact form of at least one protein or probe is not confirmed. The comparison behind a weaker result is the experiment's own reference, which may not be listed here.

Sequences of proteins named here, by UniProt entry; tags and fusion partners are left off. A change or cut given only in a name is not applied to a line headed by its entry.
UniProt Q9LG05: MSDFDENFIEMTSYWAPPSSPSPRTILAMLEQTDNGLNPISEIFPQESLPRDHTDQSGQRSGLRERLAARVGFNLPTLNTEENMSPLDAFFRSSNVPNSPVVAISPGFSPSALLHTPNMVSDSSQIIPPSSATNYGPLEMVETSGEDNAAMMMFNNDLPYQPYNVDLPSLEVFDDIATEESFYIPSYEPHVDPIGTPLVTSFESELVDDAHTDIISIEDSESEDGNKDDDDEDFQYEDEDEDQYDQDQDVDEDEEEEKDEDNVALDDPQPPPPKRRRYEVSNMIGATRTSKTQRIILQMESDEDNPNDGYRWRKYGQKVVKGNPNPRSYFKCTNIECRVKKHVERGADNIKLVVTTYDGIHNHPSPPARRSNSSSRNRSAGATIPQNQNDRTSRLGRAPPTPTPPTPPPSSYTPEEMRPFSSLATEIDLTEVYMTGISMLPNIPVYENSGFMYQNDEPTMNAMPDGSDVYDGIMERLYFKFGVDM

The target of this series is MINI3 (WRKY10) (Arabidopsis) (UniProt Q9LG05). The series is described as follows: EMSA. The conditions noted are these: much weaker affinity than W1/Wi; 25 mM Hepes-KOH pH 7.2, 40 mM KCl, 1 mM DTT, 1 mM EDTA, 10% glycerol, 0.01 uM ZnCl2, 2 ug poly-dIdC, 3 ng probe, 1 ug protein in 20 ul; room temperature 30 min; 6% gel; recombinant protein; residues 1-485; protein details: His-tag (C-terminal as stated, pDEST17); label: alpha-35S dATP (PCR); probe letters rebuilt from the primers and the genome.

With “GACATTACTGTCATCGTATATGAAACATTATTCTAATAATTGTTATAAAAATACCGGAGTTAAACTAGATTGATTATCACCGAGATTTTATATTTGTCAAGATATATAGATGGTCCATCGAAAGGATTGGTGCTTCCAAAACCTTCGATGTCACCTCCTGA (double strand) [W3-box fragment (MINI3 promoter)]”, the binding result was “binds more weakly”.
